Results published in patent US4672068A, “Antihypertensive 1,4-dihydropyridines having a conjugated ester” (Fujirebio Kabushiki Kaisha, priority 1984, dated 1987).

System: Male spontaneously hypertensive rats (SHR), arterial blood pressure
Experiment: Depressor response after intraduodenal administration (1 mg/kg), Table 2
Type: in vivo, rat
Conditions: '120<' means greater than 120
Protocol: Arterial blood pressure was measured through the catherized artery with a pressure transducer (MPU-0.5, manufactured by Nihon Kohden Kabushiki Kaisha). The catheter was inserted into the abdominal aorta via the median coccygcal artery of SHR under light ether anesthesia. The recordings were made on a rectigraph (manufactured by Sanei Sokki Kabushiki Kaisha). The 1,4-dihydropyridine derivatives prepared in the foregoing examples were administered with catheter which was inserted previously into the caudal vein or duodenum at least two hours after the operation. SHR were restrained with wire mesh cage immediately after the operation.

Structure (SMILES): COC(=O)C1=C(C)NC(C)=C(C(=O)OC)C1c1ccccc1[N+](=O)[O-] [A, 4-(o-nitrophenyl)-2,6-dimethyl-1,4-dihydropyridine-3,5-dicarboxylic acid dimethyl ester, reference compound]
- Half-life: 20.0 min
